Results are given in words; binding and its absence hold for the method and conditions named. Some binding calls cover weakened binding; strength is not graded here. Sequences can lack the tags named with a protein. One block for each binder: values may come before it.
What was measured:
[1] = biological target: T1, recombinant human RSPO3 protein (human, UniProt Q9BXY4 22-272); assay: ELISA: biotinylated LGR5 (22-560)-Fc on coated hRSPO3, streptavidin-HRP [A]
T1 sequence (looked up): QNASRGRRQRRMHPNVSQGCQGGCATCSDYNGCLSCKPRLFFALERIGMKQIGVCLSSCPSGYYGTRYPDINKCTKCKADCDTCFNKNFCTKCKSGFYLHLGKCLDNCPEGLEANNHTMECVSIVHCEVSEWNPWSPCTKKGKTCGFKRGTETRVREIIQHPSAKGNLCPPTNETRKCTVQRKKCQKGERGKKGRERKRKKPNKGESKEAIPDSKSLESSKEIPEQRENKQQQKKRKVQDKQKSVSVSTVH

[2] = biological target: T1, recombinant human RSPO3 protein; assay: ELISA: His-tagged RNF43 on coated hRSPO3, anti-His tag antibody-HRP [B]

binding [1]: binds
B1: Recombinant LGR5 (22-560)-Fc (Fc fusion, UniProt O75473 22-560, looked up, not shown: a dimerising Fc or GST)
chain: GSSPRSGVLLRGCPTHCHCEPDGRMLLRVDCSDLGLSELPSNLSVFTSYLDLSMNNISQLLPNPLPSLRFLEELRLAGNALTYIPKGAFTGLYSLKVLMLQNNQLRHVPTEALQNLRSLQSLRLDANHISYVPPSCFSGLHSLRHLWLDDNALTEIPVQAFRSLSALQAMTLALNKIHHIPDYAFGNLSSLVVLHLHNNRIHSLGKKCFDGLHSLETLDLNYNNLDEFPTAIRTLSNLKELGFHSNNIRSIPEKAFVGNPSLITIHFYDNPIQFVGRSAFQHLPELRTLTLNGASQITEFPDLTGTANLESLTLTGAQISSLPQTVCNQLPNLQVLDLSYNLLEDLPSFSVCQKLQKIDLRHNEIYEIKVDTFQQLLSLRSLNLAWNKIAIIHPNAFSTLPSLIKLDLSSNLLSSFPITGLHGLTHLKLTGNHALQSLISSENFPELKVIEMPYAYQCCAFGVCENAYKISNQWNKGDNSSMDDLHKKDAGMFQAQDERDLEDFLLDFEEDLKALHSVQCSPSPGPFKPCEHLLDGWLI
modifications: conjugated with biotin

binding [2]: binds
B2: recombinant His-tagged RNF43 (RNF43-His 16108-H08H, Sino Biological) (receptor, UniProt Q68DV7 24-197, looked up, not shown: small tags and cut ends)
chain: GFGRTGLVLAAAVESERSAEQKAIIRVIPLKMDPTGKLNLTLEGVFAGVAEITPAEGKLMQSHPLYLCNASDDDNLEPGFISIVKLESPRRAPRPCLSLASKARMAGERGASAVLFDITEDRAAAEQLQQPLGLTWPVVLIWGNDAEKLMEFVYKNQKAHVRIELKEPPAWPDY
